These are yes or no findings as the source states them, for the method shown. In cells and extracts the contact can be indirect. Some entries that bind do so weakly or less than the wild type.

The chains behind the UniProt entries cited, without tags or fusion partners.
UniProt P56693: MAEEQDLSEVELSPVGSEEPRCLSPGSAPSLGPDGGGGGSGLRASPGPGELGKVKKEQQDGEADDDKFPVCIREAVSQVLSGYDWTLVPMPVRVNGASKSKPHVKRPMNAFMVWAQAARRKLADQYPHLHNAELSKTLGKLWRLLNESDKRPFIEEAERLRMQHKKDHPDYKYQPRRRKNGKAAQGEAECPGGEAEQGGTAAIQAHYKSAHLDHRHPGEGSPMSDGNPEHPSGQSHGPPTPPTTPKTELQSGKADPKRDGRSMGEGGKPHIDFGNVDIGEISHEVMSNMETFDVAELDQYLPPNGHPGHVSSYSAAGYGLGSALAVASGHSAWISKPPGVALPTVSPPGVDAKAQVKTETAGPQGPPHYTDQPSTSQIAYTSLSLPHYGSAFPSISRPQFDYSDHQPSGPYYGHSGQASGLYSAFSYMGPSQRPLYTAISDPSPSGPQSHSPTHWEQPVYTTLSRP
UniProt Q969H0: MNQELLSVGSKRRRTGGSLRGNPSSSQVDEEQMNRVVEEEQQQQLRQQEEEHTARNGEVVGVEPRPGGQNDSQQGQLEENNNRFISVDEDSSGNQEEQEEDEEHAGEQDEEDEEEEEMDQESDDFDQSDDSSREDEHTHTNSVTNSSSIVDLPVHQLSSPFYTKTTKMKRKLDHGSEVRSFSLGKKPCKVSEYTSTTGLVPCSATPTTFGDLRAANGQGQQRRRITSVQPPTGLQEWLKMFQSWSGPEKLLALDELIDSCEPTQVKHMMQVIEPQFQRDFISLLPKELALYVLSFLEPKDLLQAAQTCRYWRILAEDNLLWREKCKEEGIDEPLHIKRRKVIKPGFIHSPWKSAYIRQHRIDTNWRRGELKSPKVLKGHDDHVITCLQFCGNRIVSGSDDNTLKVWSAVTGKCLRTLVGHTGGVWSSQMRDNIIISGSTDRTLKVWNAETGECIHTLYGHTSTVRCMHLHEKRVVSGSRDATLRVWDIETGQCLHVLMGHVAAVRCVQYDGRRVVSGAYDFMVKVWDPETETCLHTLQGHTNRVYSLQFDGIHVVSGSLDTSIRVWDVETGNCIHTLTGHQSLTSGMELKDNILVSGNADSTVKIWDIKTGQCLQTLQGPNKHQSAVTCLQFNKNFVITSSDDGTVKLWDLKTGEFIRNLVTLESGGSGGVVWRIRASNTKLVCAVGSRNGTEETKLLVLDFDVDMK
UniProt P49841: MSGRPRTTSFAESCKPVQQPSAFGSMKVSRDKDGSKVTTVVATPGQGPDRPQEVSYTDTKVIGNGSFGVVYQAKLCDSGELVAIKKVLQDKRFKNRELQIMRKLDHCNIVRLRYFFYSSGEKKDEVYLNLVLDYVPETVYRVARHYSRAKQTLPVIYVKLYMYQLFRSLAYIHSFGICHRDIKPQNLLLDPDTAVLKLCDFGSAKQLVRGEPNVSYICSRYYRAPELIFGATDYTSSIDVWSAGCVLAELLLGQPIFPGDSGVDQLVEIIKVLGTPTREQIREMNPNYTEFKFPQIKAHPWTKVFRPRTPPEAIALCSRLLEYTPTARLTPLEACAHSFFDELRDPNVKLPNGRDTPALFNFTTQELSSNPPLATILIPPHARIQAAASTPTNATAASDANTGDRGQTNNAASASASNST

Experiment [1] deals with SOX10, endogenous in MM200 melanoma cells (human (endogenous in MM200)) (UniProt P56693). Put plainly: co-IP; endogenous proteins, MM200 melanoma cell lysate in RIPA buffer; anti-Fbxw7α or anti-SOX10 (IgG as control) 2 h at 4°C, then protein A/G-agarose; Western blot. For orientation: Immunoblotting shows a protein as a band on a membrane.
Another experiment concerns the target Myc-tagged Fbxw7α (UniProt Q969H0). Put plainly: co-IP; 293T cells co-transfected for 24 h, lysed in RIPA buffer (50 mM Tris-HCl pH 8.0, 100 mM NaCl, 0.5% Nonidet P-40, 5 mM EDTA, 2 mM DTT); anti-HA or anti-Myc agarose 2 h to overnight at 4°C, four washes with RIPA buffer; Western blot.
Experiment [2] has as its target HA-tagged SOX10 (SRY-related HMG box-containing factor 10) (UniProt P56693). The experiment is described as above.
In experiment [3] the target is Fbxw7α, endogenous in MM200 melanoma cells (human (endogenous in MM200)) (UniProt Q969H0). Put plainly: co-IP; endogenous proteins, MM200 melanoma cell lysate in RIPA buffer; anti-Fbxw7α or anti-SOX10 (IgG as control) 2 h at 4°C, then protein A/G-agarose; Western blot.

As for “Fbxw7α, endogenous in MM200 melanoma cells (from UniProt Q969H0 1-707)”, the binding result in experiment [1] is “binds”.
With “HA-tagged SOX10 (SRY-related HMG box-containing factor 10) (from UniProt P56693 1-466)”, the binding entry with Myc-tagged Fbxw7α is on record as “binds”.
Take “Myc-GSK3β (glycogen synthase kinase 3β) (from UniProt P49841 1-420) (enzyme)”: the binding result in experiment [2] is listed as “binds”.
In the case of “Myc-tagged Fbxw7α (from UniProt Q969H0 1-707)”, the binding result in experiment [2] is “binds”.
Regarding “SOX10, endogenous in MM200 melanoma cells (from UniProt P56693 1-466)”, the binding result in experiment [3] is listed as “binds”.

Source of the values: paper PMC4742183.
